This is an account of results in article PMC11235165 (Science Advances, 2024).

Some peptides are written in HELM: one residue between dots, names in brackets for other building blocks, links after the first $.

The data set is described as follows: peptide synthesis. Conditions: conjugation step.

The substance “PEPTIDE1{[Bmt-JP1-138].[Abu].[Sar].[MeLeu].V.[MeLeu].A.[dA].[MeLeu].[MeLeu].[MeVal]}$PEPTIDE1,PEPTIDE1,1:R1-11:R2$$$V2.0” came in with a conjugation yield of 9.3%.
